Experimental data as given in PMC12221590.

Amino acid sequences for entries named in this document (tags omitted).
UniProt Q5M9Q1: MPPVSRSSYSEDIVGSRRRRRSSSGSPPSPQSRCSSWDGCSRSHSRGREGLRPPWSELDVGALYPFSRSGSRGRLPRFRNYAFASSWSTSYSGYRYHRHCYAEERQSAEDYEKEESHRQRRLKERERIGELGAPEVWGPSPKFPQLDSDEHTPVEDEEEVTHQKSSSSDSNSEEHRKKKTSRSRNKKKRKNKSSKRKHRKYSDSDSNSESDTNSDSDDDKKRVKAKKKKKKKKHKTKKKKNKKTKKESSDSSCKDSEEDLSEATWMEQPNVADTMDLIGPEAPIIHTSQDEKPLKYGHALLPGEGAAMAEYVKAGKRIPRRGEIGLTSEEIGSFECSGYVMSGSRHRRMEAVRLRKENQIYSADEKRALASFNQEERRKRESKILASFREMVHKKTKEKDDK
UniProt P19474: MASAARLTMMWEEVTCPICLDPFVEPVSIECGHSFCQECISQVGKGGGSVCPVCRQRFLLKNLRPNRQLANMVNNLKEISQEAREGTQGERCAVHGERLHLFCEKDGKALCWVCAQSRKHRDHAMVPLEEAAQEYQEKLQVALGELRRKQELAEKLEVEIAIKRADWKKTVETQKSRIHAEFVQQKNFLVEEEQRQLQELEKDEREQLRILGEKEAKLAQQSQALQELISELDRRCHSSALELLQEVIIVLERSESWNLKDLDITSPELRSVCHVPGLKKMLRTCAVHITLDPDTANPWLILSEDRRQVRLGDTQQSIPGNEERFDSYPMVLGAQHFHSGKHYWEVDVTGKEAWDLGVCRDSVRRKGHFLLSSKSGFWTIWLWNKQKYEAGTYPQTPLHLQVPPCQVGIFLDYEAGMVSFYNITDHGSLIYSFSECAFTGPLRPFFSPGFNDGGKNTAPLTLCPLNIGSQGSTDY

Target: GFP-tagged NF-kappa-B-activating protein-like (NKAPL) (human) (UniProt Q5M9Q1)
Test: affinity purification with mass spectrometry; co-immunoprecipitation with a GFP antibody from A549 cells, proteins identified by mass spectrometry

- binding: binds
Substance: tripartite motif-containing 21 (TRIM21) (from UniProt P19474 1-475)

Results are given in words; binding and its absence hold for the method and conditions named. In cells and extracts the contact can be indirect. A yes stands for co-enrichment or nearness to the bait. Other partners may have been found.
